Assay results published in paper PMC4768134.
These are yes or no findings as the source states them, for the method shown. Binding seen in cells or lysates may run through a third protein. Some results given as binding are weak or reduced against the parent protein; the word gives no strength.

How the values were obtained:
[1] = target: PINK1 (mouse (endogenous in nigra)) (UniProt Q99MQ3); experiment: co-IP; endogenous proteins in nigral extracts of Non-Tg and A53T-Tg mice (n = 3/group); IP of BPOZ-2 then IB of PINK1, and IP of PINK1 then IB of BPOZ-2; IgG IP as negative control
[2] = target: Ankyrin-rich BTB/POZ domain containing protein-2 (mouse (endogenous in nigra)) (UniProt Q7TQI7); experiment: as above

binding [1]	binding [2]	Substance
binds	–	Ankyrin-rich BTB/POZ domain containing protein-2 (from UniProt Q7TQI7 1-1024)
–	binds	PINK1 (from UniProt Q99MQ3 78-580)
